Source: PubChem BioAssay AID540256 (National Center for Advancing Translational Sciences (NCATS), 2011)
Screen size: about 300,000 compounds; about 3,700 (1.2%) were called active. The shares of active, inactive and inconclusive entries below differ from those in the screen. Calls come from the whole dose curve; tested in HEK293 cells. A potency beside an inconclusive call is a rough fit, not a confirmed value.

assay: qHTS for Inhibitors of binding or entry into cells for Lassa Virus; details: Lassa virus pseudotype entry inhibition, cell reporter; activity change, negative = inhibition: at 37.9 µM (top of the series) unless noted; note: nearly all actives have a fitted effect of over 50% in size
% is set by controls: 0 for no effect and ±100 for the full control effect; potency is the fitted concentration of half-maximal effect.

Structure (SMILES)	Potency	activity change, negative = inhibition
Oc1cccc(CN2CCOCC2)c1O	inconclusive: 5.62 µM [activator, full curve, poor fit]	
Cc1ccn2cc(C(=O)Nc3nnc(C)s3)nc2c1	inconclusive: 29.1 µM [inhibitor, single point]	
CC1CCN(C(=O)CS(=O)(=O)Cc2ccccc2)CC1	inconclusive: 35.5 µM [activator, single point]	
Cc1ccc2cc(C#N)c(N3CCN(C(=O)c4cccs4)CC3)nc2c1	inconclusive: 0.891 µM [inhibitor, single point]	
O=C(N/N=C/c1ccco1)c1cc(-c2cccc(Br)c2)nc2ccccc12	inconclusive: 29.1 µM [inhibitor, single point]	
O=C(Nc1ncc(Cc2cccc(Cl)c2)s1)c1ccc([N+](=O)[O-])cc1	inconclusive: 0.398 µM [inhibitor, single point]	
CC(=O)Nc1cccc(C(=O)OC(C(=O)c2ccc(C)c(C)c2)c2ccccc2)c1 (centres undefined)	inconclusive: 16.4 µM [inhibitor, partial curve]	
O=C(NCCc1ccccc1)c1nc2ncccn2n1	inconclusive: 23.1 µM [activator, partial curve, poor fit]	
Cc1ccc(C)c(NC(=O)CSc2n[nH]c(-c3ccncc3)n2)c1		inactive: 15%
CC(C)CCn1nnnc1C(C(C)C)N1CCC(C(N)=O)CC1 (centres undefined)	inconclusive: 3.26 µM [inhibitor, single point]	
Cc1ccc(C(c2c(C)n(C)n(-c3ccccc3)c2=O)c2c(C)n(C)n(-c3ccccc3)c2=O)s1	inconclusive: 35.5 µM [inhibitor, single point]	
CCCCN(CCCC)C(=O)c1cc2ccccc2c(=O)o1		inactive: 11.2%
COc1ccc(-c2nnc(SCC(=O)c3ccc(O)cc3O)o2)cc1		inactive: 28%
COc1cccc(NC(=O)CNC(=O)c2ccc(C)o2)c1	inconclusive: 1 µM [inhibitor, single point]	
CN(Cc1ccccc1)C(=O)CSc1nc2ccccc2c(=O)n1Cc1ccco1	active: 5.8 µM	
Cc1c(NC(=O)CSc2ccccc2Cl)c(=O)n(-c2ccccc2)n1C	inconclusive: 0.794 µM [inhibitor, full curve, poor fit]	
CC(=O)NN1C(=O)/C(=C/c2ccc(Br)o2)SC1=S		inactive: -0.361%
CN(C)c1cccc(C(=O)NCCCSc2ccccc2)c1		inactive: -16.4% [at 46.1 µM]
Cn1c(CCCOc2ccc(Cl)cc2Cl)nnc1SCC(=O)Nc1cccc(F)c1	inconclusive: 25.1 µM [inhibitor, single point]	
O=C(Nc1ccccc1C(F)(F)F)c1ncn[nH]1		inactive: 1.56% [at 46.1 µM]
O=C(Nc1nc(-c2cc(F)ccc2F)cs1)C1=NN(c2ccccc2)C(=O)CC1	inconclusive: 20 µM [inhibitor, partial curve, poor fit]	
CC1Sc2ccc(C(=O)Nc3ncccc3O)cc2NC1=O (centres undefined)	inconclusive: 12.6 µM [inhibitor, single point]	
O=c1sc2ccccc2n1CCCOc1ccccc1		inactive: 25.6%

One compound at a time, as listed above:
CC1Sc2ccc(C(=O)Nc3ncccc3O)cc2NC1=O (centres undefined) as listed: Potency: inconclusive: 12.6 µM [inhibitor, single point]
Cc1ccn2cc(C(=O)Nc3nnc(C)s3)nc2c1 as listed: Potency: inconclusive: 29.1 µM [inhibitor, single point]
COc1cccc(NC(=O)CNC(=O)c2ccc(C)o2)c1 as listed: Potency: inconclusive: 1 µM [inhibitor, single point]
COc1ccc(-c2nnc(SCC(=O)c3ccc(O)cc3O)o2)cc1 as listed: activity change, negative = inhibition: inactive: 28%

Next structures

Structure (SMILES)	Potency	activity change, negative = inhibition
O=C1NC(=O)C2(Cc3ccccc3N3CCCC32)C(=O)N1c1ccc(Cl)cc1 (centres undefined)		inactive: 0.544%
COc1ccc(NS(=O)(=O)c2cc(NC(=O)c3ccc(C)o3)ccc2N2CCCCC2)cc1	inconclusive: 14.1 µM [inhibitor, partial curve, poor fit]	
COc1ccc(N2C[C@H](C)[C@@H](CC(=O)Nc3ccccc3)C2=O)cc1	inconclusive: 0.396 µM [activator, full curve, poor fit]	
CCOC(CCNC(=O)CCC(=O)Nc1ccc2nc(N3CCN(C)CC3)cc(C)c2c1)OCC		inactive: -5.13% [at 46.1 µM]
O=c1c2ccccc2cnn1-c1ccc(Cl)nn1		inactive: 20.7%
COc1ccc(NC(=O)Cn2c(SCc3c(F)cccc3Cl)nc3ccncc32)cc1OC	inconclusive: 35.5 µM [activator, single point]	
COc1cccc(-c2nnc(-c3ccccc3[N+](=O)[O-])o2)c1		inactive: 13%
CC(C)CC(c1nnnn1C(C)C)N1CCN(c2cccc(Cl)c2)CC1 (centres undefined)	inconclusive: 11.2 µM [inhibitor, partial curve, poor fit]	
CN(C)N1C(N)=C(C#N)C(c2cccc3ccccc23)C2=C1CC(c1ccccc1)CC2=O (centres undefined)	inconclusive: 8.91 µM [inhibitor, partial curve, poor fit]	
Cc1cc(C(=O)N/N=C/c2c3ccccc3cc3ccccc23)n[nH]1	inconclusive: 7.08 µM [inhibitor, full curve, poor fit]	
O=C(NCCN1CCN(Cc2ccccc2)CC1)C1c2ccccc2C(=O)N2CCc3ccccc3C12 (centres undefined)	inconclusive: 3.98 µM [activator, single point]	
CCCC(=O)Nc1nnc(-c2ccc3c(c2)OCCO3)o1		inactive: -5.1%
O=C(NNC(=S)Nc1ccc(F)cc1)c1cccc([N+](=O)[O-])c1	inconclusive: 7.94 µM [activator, partial curve, poor fit]	
Cc1cc(N2C(=O)C3C4c5ccccc5C(c5ccccc54)C3C2=O)no1 (centres undefined)	inconclusive: 12.6 µM [inhibitor, partial curve, poor fit]	
CN1CCN(c2ccc(-c3nc(-c4ccccc4)no3)cc2[N+](=O)[O-])CC1	inconclusive: 0.562 µM [inhibitor, full curve, poor fit]	
CC(=O)Oc1ccc2c(C)c(CC(C)O)c(=O)oc2c1 (centres undefined)	inconclusive: 1.16 µM [activator, single point]	
O=C(CSc1nc(-c2ccco2)cc(C(F)(F)F)n1)Nc1cccnc1	inconclusive: 16.4 µM [inhibitor, partial curve]	
O=C(NCCC1=CCCCC1)c1ccc([N+](=O)[O-])cc1	inconclusive: 31.6 µM [inhibitor, single point]	
CN(C)S(=O)(=O)c1cccc(NC(=O)CN2C(=O)NC3(CCc4ccccc4C3)C2=O)c1 (centres undefined)		inactive: -0.0716%
CCOc1ccc(C(C)C)cc1S(=O)(=O)Nc1ccc(Cl)cn1		inactive: 1.42%
Cc1ccc(SCCC(=O)Nc2ccccc2C(=O)NC2CCCCC2)cc1	inconclusive: 1.26 µM [inhibitor, single point]	
Cc1ccc(SCCNC(=O)CN2C(=O)c3ccccc3S2(=O)=O)cc1		inactive: 9.43%
O=[N+]([O-])c1cccc(-c2n[nH]c(=S)n2Cc2ccccc2)c1		inactive: 4.82%

Structure (SMILES)	Potency	activity change, negative = inhibition
OCCCCNCc1ccc(OCc2ccc(Cl)cc2Cl)cc1	inconclusive: 29.1 µM [inhibitor, single point]	
NC1(C(=O)O)CCCCC1		inactive: 4.77%
COc1ccccc1C(=O)OCC(=O)Nc1cccc(S(=O)(=O)N2CCCC2)c1		inactive: 8.33%
O=C1CC=C2C3CC4N(CCC45c4ccccc4N1C25)CC3=CCO (centres undefined)	inconclusive: 0.562 µM [activator, single point]	
CN1CC[C@@]2(C)c3cc(OC(=O)Nc4ccccc4)ccc3N(C)[C@@H]12		inactive: -41.3%
COc1cc(NS(=O)(=O)c2ccc3c(c2)OCC(C(=O)N2CCCC2)O3)cc(OC)c1 (centres undefined)	inconclusive: 8.91 µM [inhibitor, partial curve, poor fit]	
O=C(c1cccc(C(=O)N2CCN(Cc3ccccc3)CC2)c1)N1CCN(Cc2ccccc2)CC1	inconclusive: 35.5 µM [inhibitor, single point]	
CC1(C)CC(=O)C2=C(C1)OC(N)=C([N+](=O)[O-])C2c1ccc(C#N)s1 (centres undefined)	inconclusive: 0.562 µM [activator, full curve, poor fit]	
CCC(=O)n1nc(-c2ccco2)nc1SCc1ccccc1	inconclusive: 29.1 µM [activator, single point]	
Cc1ccc(NC(=O)C2CCCN(S(=O)(=O)c3ccc(C)cc3)C2)cc1 (centres undefined)		inactive: -3.19% [at 46.1 µM]
COc1cc(/C=N/Nc2nc(C)cc(C)n2)ccc1OC(=O)c1ccco1	inconclusive: 4.47 µM [activator, full curve, poor fit]	
COc1cc2nc(C3CCC3)nc(N3CCN(c4ccccc4OC)CC3)c2cc1OC	inconclusive: 20 µM [inhibitor, single point]	
O=C1/C(=C\c2ccc(O)cc2)SC(=S)N1Cc1ccccc1	inconclusive: 35.5 µM [activator, single point]	
CCC(Sc1nc2n[nH]c(C)c2c(=N)n1-c1ccc(Br)cc1)C(=O)N(CC)CC (centres undefined)	inconclusive: 11.2 µM [inhibitor, partial curve, poor fit]	
O=C(Cn1c2c(sc1=O)C1c3ccccc3OCC1CS2)Nc1ccc(Cl)cc1 (centres undefined)	inconclusive: 35.5 µM [inhibitor, single point]	
CCSc1nnc(-c2cccc(S(=O)(=O)N(CC)CC)c2)n1Cc1ccccc1	active: 23.1 µM	
Cc1ccc(OCc2cn3cccnc3n2)cc1		inactive: 21.1%
CCCCN(CCCC)S(=O)(=O)c1ccc(NC(=O)c2ccc([N+](=O)[O-])cc2Cl)cc1	inconclusive: 29.1 µM [inhibitor, single point]	
CN(C)c1ccc(N=Cc2nc(-c3ccccc3)oc2OC(=O)c2ccccc2)cc1	inconclusive: 1 µM [activator, partial curve]	
COc1ccc(OC)c(C(=O)c2c(N)c(-c3nc(-c4ccc(C)c(C)c4)cs3)c3ccccn23)c1		inactive: 14% [at 46.1 µM]
Cc1cc(C(=O)NCCC2=CCCCC2)ccc1[N+](=O)[O-]	inconclusive: 12.6 µM [inhibitor, single point]	
COc1ccc(NC(=S)NNC(=O)C2CC2c2ccc(C)cc2)cc1 (centres undefined)	inconclusive: 2.06 µM [inhibitor, full curve, poor fit]	
COc1cccc(-c2nn(C)c3sc(C(=O)NCc4ccccn4)cc23)c1		inactive: -20.9%
